Assay results reported in publication PMC7435819, “Towards the Inhibition of Protein–Protein Interactions (PPIs) in STAT3: Insights into a New Class of Benzothiadiazole Derivatives” (Molecules, 2020).

Assay: MS study of covalent adduct formation with glutathione
Details: 37 °C; for covalent adducts with GSH (MS): neutral or basic pH (pH 7.4, pH 10), up to 24 h

Compound	reactivity with GSH (MS) (acidic pH (pH 2 buffer))	covalent adducts with GSH (MS)
Cc1cc2c(cc1C)NS(=O)(=O)N2 [Compound 1, 5,6-Dimethyl-1H,3H-2,1,3-benzothiadiazole-2,2-dioxide]	no reactivity was observed	stable covalent adducts
O=[N+]([O-])c1ccc2c(c1)NS(=O)(=O)N2 [Compound 1d, 5-Nitro-1H,3H-2,1,3-benzothiadiazole-2,2-dioxide]		no adducts were detectable
